Test results: patent publication US7906477B2 (Genspera, Inc., priority 2002, dated 2011)

Experiment: general procedure: Fmoc solid-phase peptide synthesis; PEGA resin; Fmoc-Lys(Mtt)-Wang resin; Fmoc-Leu-Wang resin; HBTU/NMM; Hobt/DIC
Details: conjugation step

Substance: acGKAFRRL-12ADT
- conjugation yield: 60-70%
